Our source for the IC50 values is patent US20200206313A1, “POLYPEPTIDE NANOTUBES LINKED BY DISULFIDE BONDS FOR TARGETED DELIVERY OF CYTOTOXIC THERAPIES” (MUSC FOUNDATION FOR RESEARCH DEVELOPMENT, priority 2018, published 2020).

One assay has as its system MDAMB231. Kind of assay: Cytotoxicity, MTT assay, MDAMB231. It is filed as cell-based. Here is the method: (§1) HeLa (Cervical cancer cell line), MDA-MB-231 (Breast cancer cell line) and HaCaT (Human keratinocytes) cells were maintained in growth medium consisting of Dulbecco's Modified Eagle's Medium (DMEM, Gibco, India) with high glucose, supplemented with 10% FBS and 1% penicillin-streptomycin. The cells were grown in […] flasks (BD Falcon) and passaged every three days. All culture reagents were purchased from Thermofisher scientific. The serum free media was used to eliminate any confounding effects from serum adsorption to the nanotubes. Within the time-period (5 h) of the experiment, no adverse cellular responses were observed from serum deprivation or serum shock after a transfer from serum containing growth media.
(§2) Cytotoxicity of nanotube, DOX loaded nanotube and free DOX were assessed in HeLa and MDAMB231 using the MTT assay. About 5×10^3 cells were seeded per well of a 96-well plate and allowed to attach during incubation for 24 h in a humidified incubator at 37° C. Cells were treated with different concentrations of nanotubes, free DOX or DOX loaded nanotubes ranging from 0.2 to 6.4 μg/ml. Four hours before termination of the assay, MTT was added. Mitochondria of viable cells […] MTT to produce purple Formazan crystals. […] The absorbance of each well was measured at 570 nm using a microplate reader (Synergy HT, BioTek Instrument Inc., Winooski Vt.). […]

The test system of another assay is HeLa. The assay is described as follows: Cytotoxicity, MTT assay, HeLa. The assay is classed as cell-based. Here is the method: as §1, §2

For the molecule `COc1cccc2c1C(=O)c1c(O)c3c(c(O)c1C2=O)C[C@@](O)(C(=O)CO)C[C@@H]3O[C@H]1C[C@H](N)[C@H](O)[C@H](C)O1.Cl` [free DOX, Doxorubicin hydrochloride], the IC50 in the assay on MDAMB231 came to 2.3 µg/mL; in the assay with HeLa, 0.45 µg/mL.
